1 molecule from patent US7060506 can be followed below.

Protein sequences, listed by entry. Tags and fused reporters are not part of them. Lines headed by an entry give the natural chain unless they say otherwise; changes in a name come on top. Chains listed by the source or under a name are the forms on record and can include a tag or linker.
ZAP70-FJ (P43403, form named): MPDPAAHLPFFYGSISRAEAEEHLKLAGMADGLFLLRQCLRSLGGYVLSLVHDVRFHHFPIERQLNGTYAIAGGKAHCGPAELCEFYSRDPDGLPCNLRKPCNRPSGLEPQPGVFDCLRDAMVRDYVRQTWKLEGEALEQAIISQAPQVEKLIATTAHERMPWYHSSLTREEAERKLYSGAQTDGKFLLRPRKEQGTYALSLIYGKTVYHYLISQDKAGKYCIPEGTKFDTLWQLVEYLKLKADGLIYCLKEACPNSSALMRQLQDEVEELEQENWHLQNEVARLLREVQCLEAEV

No constants are given. Whether binding was seen depends on the method and setting. Some entries that bind do so weakly or less than the wild type.

In the assay the target is ZAP70-FJ (UniProt P43403). The assay is described as follows: fluorescence polarisation, 1 µM labeled peptide with ZAP70-FJ purification fractions. For orientation: Polarisation of emitted light reports the rotation of a fluorescent probe.

B1: Peptide 1 (synthetic Fos/Jun polypeptide partner), labeled with fluorescein (peptide)
peptide: RMRQLEDRVEELREQNWHLANQVARLRQRVCELKARV
modifications: labeled with fluorescein (position not given)
B1: the binding result is on record as “binds”.
